Article PMC9636579
Results are given in words; binding and its absence hold for the method and conditions named. In cells and extracts the contact can be indirect. Some entries that bind do so weakly or less than the wild type.

By UniProt entry, the sequences of proteins in these tests, tags left out.
UniProt P09874: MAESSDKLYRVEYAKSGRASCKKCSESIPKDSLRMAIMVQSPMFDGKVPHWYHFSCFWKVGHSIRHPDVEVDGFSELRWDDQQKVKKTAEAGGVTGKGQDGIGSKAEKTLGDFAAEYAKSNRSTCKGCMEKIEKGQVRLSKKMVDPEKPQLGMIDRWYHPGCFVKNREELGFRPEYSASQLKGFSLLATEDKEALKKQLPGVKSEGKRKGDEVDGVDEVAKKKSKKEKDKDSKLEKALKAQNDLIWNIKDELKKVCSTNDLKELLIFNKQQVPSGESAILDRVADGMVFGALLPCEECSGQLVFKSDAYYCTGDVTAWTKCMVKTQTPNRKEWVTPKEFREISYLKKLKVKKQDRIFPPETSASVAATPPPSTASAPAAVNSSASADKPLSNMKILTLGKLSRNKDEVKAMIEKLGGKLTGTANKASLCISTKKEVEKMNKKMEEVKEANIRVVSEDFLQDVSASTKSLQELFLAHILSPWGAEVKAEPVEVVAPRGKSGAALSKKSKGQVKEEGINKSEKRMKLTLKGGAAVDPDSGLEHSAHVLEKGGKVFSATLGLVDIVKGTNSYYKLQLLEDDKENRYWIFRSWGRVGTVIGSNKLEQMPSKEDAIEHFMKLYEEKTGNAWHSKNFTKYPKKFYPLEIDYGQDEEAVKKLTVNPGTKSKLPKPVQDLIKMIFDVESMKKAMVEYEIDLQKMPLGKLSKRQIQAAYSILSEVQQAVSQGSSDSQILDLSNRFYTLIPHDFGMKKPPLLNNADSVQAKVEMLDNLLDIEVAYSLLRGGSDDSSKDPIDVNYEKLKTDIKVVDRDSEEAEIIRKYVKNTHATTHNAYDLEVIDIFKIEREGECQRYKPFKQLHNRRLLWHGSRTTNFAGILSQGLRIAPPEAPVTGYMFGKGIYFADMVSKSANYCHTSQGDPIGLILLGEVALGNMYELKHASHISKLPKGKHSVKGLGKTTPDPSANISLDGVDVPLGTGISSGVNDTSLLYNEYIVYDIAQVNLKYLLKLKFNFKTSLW
UniProt Q9UGN5: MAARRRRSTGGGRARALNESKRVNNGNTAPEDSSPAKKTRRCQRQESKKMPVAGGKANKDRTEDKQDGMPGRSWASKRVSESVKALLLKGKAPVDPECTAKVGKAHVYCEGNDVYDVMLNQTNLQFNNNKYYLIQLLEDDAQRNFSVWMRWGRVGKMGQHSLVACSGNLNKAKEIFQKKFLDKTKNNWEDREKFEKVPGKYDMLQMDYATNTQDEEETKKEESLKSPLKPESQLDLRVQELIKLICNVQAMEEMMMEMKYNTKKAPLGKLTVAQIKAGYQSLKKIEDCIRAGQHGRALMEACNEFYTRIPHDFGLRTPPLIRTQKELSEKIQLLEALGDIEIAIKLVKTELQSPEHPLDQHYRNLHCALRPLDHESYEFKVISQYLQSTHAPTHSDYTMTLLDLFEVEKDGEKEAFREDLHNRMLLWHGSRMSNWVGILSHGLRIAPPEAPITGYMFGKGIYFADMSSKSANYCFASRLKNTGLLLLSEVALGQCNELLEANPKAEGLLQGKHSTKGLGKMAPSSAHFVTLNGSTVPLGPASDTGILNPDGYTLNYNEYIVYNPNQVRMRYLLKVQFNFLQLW

Columns and labels:
[1] = biological target: poly (ADP-ribose) polymerase 1 (human (endogenous in UWB1.289 cells and patient tumors)) (UniProt P09874); assay: pull-down; c-olaparib or c-rucaparib beads incubated with UWB or UWB+B cell lysate ±20 μM free drug; eluates immunoblotted
[2] = biological target: poly (ADP-ribose) polymerase 1 (human (endogenous in UWB1.289 cells and patient tumors)) (UniProt P09874); assay: pull-down; c-olaparib or c-rucaparib beads incubated with lysates of frozen BRCA1-proficient or BRCA1-deficient ovarian cancer patient tumor samples ±20 μM free drug; eluates immunoblotted
[3] = biological target: Ku70 (human (endogenous in UWB1.289 cells and patient tumors)) (UniProt P12956); assay: co-IP; immunoprecipitation with IgG or Ku70 antibodies from UWB and UWB+B cell lysates; endogenous proteins, Western blot of eluates

| binding [1] | binding [2] | binding [3] | Substance |
| --- | --- | --- | --- |
| binds | binds |  | Ku80 (from UniProt P13010 1-732) |
|  |  | binds | PARP2 (from UniProt Q9UGN5 1-583) |
